Test results reported in PMC4649906, “Unraveling the molecular architecture of a G protein-coupled receptor/β-arrestin/Erk module complex” (Scientific Reports, 2015).
Results are given in words; binding and its absence hold for the method and conditions named. Some binding calls cover weakened binding; strength is not graded here.

Sequences of proteins named here, by UniProt entry; tags and fusion partners are left off.
UniProt P28482: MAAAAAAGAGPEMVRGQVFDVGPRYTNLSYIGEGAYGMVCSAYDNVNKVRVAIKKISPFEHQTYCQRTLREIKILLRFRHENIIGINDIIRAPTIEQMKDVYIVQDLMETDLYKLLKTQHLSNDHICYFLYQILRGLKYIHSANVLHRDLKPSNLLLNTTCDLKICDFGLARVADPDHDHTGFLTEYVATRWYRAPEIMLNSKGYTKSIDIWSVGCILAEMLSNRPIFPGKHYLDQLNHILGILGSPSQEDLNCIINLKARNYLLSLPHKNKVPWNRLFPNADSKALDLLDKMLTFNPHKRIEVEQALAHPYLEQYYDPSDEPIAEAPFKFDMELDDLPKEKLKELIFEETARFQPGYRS
UniProt P49407: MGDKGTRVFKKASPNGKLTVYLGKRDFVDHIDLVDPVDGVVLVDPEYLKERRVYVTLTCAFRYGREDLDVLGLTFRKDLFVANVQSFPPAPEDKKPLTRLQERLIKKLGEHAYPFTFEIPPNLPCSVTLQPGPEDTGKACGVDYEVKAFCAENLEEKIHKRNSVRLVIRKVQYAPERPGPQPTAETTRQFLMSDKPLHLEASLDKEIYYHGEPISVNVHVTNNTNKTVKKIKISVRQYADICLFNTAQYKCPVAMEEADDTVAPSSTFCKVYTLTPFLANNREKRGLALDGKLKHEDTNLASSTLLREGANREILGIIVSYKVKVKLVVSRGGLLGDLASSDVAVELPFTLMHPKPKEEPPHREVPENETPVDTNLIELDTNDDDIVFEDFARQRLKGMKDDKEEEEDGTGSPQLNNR

Tests used:
[1] = molecular target: GST-Raf1-RBD fusion protein (UniProt P04049); test: pull-down; GST fusion protein immobilised on Glutathione Sepharose 4B beads; 25 ng human recombinant β-arrestin 1 as prey, with or without 0.5 mM peptide; 20 mM Hepes pH 7.9, 50 mM KCl, 2.5 mM MgCl2, 1 mM DTT, 10% glycerol, protease and phosphatase inhibitors; 1 hour at 4 °C; six washes; blot with anti-β-arrestin, quantified as the ratio of β-arrestin 1 over GST fusion; both purified
GST-ERK2 fusion protein = GST-ERK2 fusion protein (UniProt P28482); test: as above

Row | Molecule | binding [1] | binding (GST-ERK2 fusion protein)
1 | human recombinant β-arrestin 1 (from UniProt P49407 1-418) | binds | binds
2 | HIDLVEPVD [βarr1_Raf1 interfering peptide] | binds | –
3 | LKHEDTN [βarr1_ERK2 interfering peptide] | – | binds
